# Reference: the supplement of paper PMC8728848
# Some of the results follow.
# B1: Agalectin (Anopheles gambiae) (protein)
# chain: MSNRPFTAKFPRYPENGDEVFIRGKLKDDAKSFSVNFCLPRPAQVAEHQTPPYIALHFKTIYDERDDTSRVVLNWKNLQWQQEEVLDNYWHVDRSQTFRVVFRLHEDCIKVFVNSVDHPPDYQFPVQLPLDQIESIELWDDVEHVEEISFRYDNGNSY
# Key:
# Test in all cases: glycan array binding signal (z-score within array); higher = stronger binding
# Settings in all cases: glycan notation: IUPAC condensed, linker removed
# [1] = biological target: Fuc(a1-2)Gal(b1-4)GlcNAc(b1-3)Gal(b1-4)GlcNAc(b1-3)Gal(b1-4)GlcNAc
# How it was run: (§1)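 Glycan array data were curated from 3228 arrays in the Consortium for Functional Glycomics database and kept only where the protein sequence was available. Glycan names were converted to IUPAC-condensed notation, and columns mapping to the same glycan were averaged. The binding signal is a within-array Z-score, averaged across arrays of the same protein sequence at different concentrations or buffers and across linkers. Negative Z-scores can be read as non-binding.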
# [2] = biological target: Fuc(a1-2)Gal(b1-4)GlcNAc(b1-3)GalNAc
# How it was run: as §1
# [3] = biological target: Fuc(a1-2)Gal(b1-4)GlcNAc(b1-3)[Fuc(a1-2)Gal(b1-4)GlcNAc(b1-6)]GalNAc
# How it was run: as §1
# [4] = biological target: Fuc(a1-2)Gal(b1-4)GlcNAc(b1-3)[Fuc(a1-3)[Gal(b1-4)]GlcNAc(b1-6)]Gal(b1-4)Glc
# How it was run: as §1
# [5] = biological target: Fuc(a1-2)Gal(b1-4)GlcNAc(b1-6)GalNAc
# How it was run: as §1
# [6] = biological target: Fuc(a1-2)Gal(b1-4)GlcNAc6S
# How it was run: as §1
# [7] = biological target: Fuc(a1-2)Gal(b1-4)[Fuc(a1-3)]GlcNAc
# How it was run: as §1
# [8] = biological target: Fuc(a1-2)Gal(b1-4)[Fuc(a1-3)]GlcNAc(b1-2)Man(a1-3)[Fuc(a1-2)Gal(b1-4)[Fuc(a1-3)]GlcNAc(b1-2)Man(a1-6)]Man(b1-4)GlcNAc(b1-4)[Fuc(a1-6)]GlcNAc
# How it was run: as §1
# [9] = biological target: Fuc(a1-2)Gal(b1-4)[Fuc(a1-3)]GlcNAc(b1-2)[Fuc(a1-2)Gal(b1-4)[Fuc(a1-3)]GlcNAc(b1-4)]Man(a1-3)[Fuc(a1-2)Gal(b1-4)[Fuc(a1-3)]GlcNAc(b1-2)Man(a1-6)]Man(b1-4)GlcNAc(b1-4)GlcNAc
# How it was run: as §1
# [10] = biological target: Fuc(a1-2)Gal(b1-4)[Fuc(a1-3)]GlcNAc(b1-3)Gal(b1-4)[Fuc(a1-3)]GlcNAc
# How it was run: as §1
# [11] = biological target: Fuc(a1-2)Gal(b1-4)[Fuc(a1-3)]GlcNAc(b1-3)Gal(b1-4)[Fuc(a1-3)]GlcNAc(b1-3)Gal(b1-4)[Fuc(a1-3)]GlcNAc
# How it was run: as §1
# [12] = biological target: Fuc(a1-2)Gal(b1-4)[Fuc(a1-3)]GlcNAc(b1-3)GalNAc
# How it was run: as §1
# [13] = biological target: Fuc(a1-2)Gal(b1-4)[Fuc(a1-3)]GlcNAc(b1-3)[Neu5Ac(a2-6)Gal(b1-4)GlcNAc(b1-6)]Gal(b1-4)Glc
# How it was run: as §1
# [14] = biological target: Fuc(a1-2)Gal3S(b1-4)GlcNAc
# How it was run: as §1
# [15] = biological target: Fuc(a1-2)Gal6S(b1-3)GlcNAc
# How it was run: as §1
# [16] = biological target: Fuc(a1-2)Gal6S(b1-3)GlcNAc6S
# How it was run: as §1
# [17] = biological target: Fuc(a1-2)Gal6S(b1-4)Glc
# How it was run: as §1
# [18] = biological target: Fuc(a1-2)Gal6S(b1-4)Glc6S
# How it was run: as §1
# [19] = biological target: Fuc(a1-2)[Gal(a1-3)]Gal
# How it was run: as §1
# [20] = biological target: Fuc(a1-2)[Gal(a1-3)]Gal(b1-3)GalNAc
# How it was run: as §1
# [21] = biological target: Fuc(a1-2)[Gal(a1-3)]Gal(b1-3)GalNAc(b1-3)Gal(a1-4)Gal(b1-4)Glc
# How it was run: as §1
# [22] = biological target: Fuc(a1-2)[Gal(a1-3)]Gal(b1-3)GlcNAc
# How it was run: as §1
# [23] = biological target: Fuc(a1-2)[Gal(a1-3)]Gal(b1-3)GlcNAc(b1-2)Man(a1-3)[Fuc(a1-2)[Gal(a1-3)]Gal(b1-3)GlcNAc(b1-2)Man(a1-6)]Man(b1-4)GlcNAc(b1-4)GlcNAc
# How it was run: as §1
# [24] = biological target: Fuc(a1-2)[Gal(a1-3)]Gal(b1-3)GlcNAc(b1-2)Man(a1-3)[Fuc(a1-2)[Gal(a1-3)]Gal(b1-3)GlcNAc(b1-2)Man(a1-6)]Man(b1-4)GlcNAc(b1-4)[Fuc(a1-6)]GlcNAc
# How it was run: as §1
# [25] = biological target: Fuc(a1-2)[Gal(a1-3)]Gal(b1-3)GlcNAc(b1-3)GalNAc
# How it was run: as §1
# [26] = biological target: Fuc(a1-2)[Gal(a1-3)]Gal(b1-3)GlcNAc(b1-6)GalNAc
# How it was run: as §1
# [27] = biological target: Fuc(a1-2)[Gal(a1-3)]Gal(b1-4)Glc
# How it was run: as §1
# [28] = biological target: Fuc(a1-2)[Gal(a1-3)]Gal(b1-4)GlcNAc
# How it was run: as §1
# [29] = biological target: Fuc(a1-2)[Gal(a1-3)]Gal(b1-4)GlcNAc(b1-2)Man
# How it was run: as §1
# [30] = biological target: Fuc(a1-2)[Gal(a1-3)]Gal(b1-4)GlcNAc(b1-2)Man(a1-3)[Fuc(a1-2)[Gal(a1-3)]Gal(b1-4)GlcNAc(b1-2)Man(a1-6)]Man(b1-4)GlcNAc(b1-4)GlcNAc
# How it was run: as §1
# [31] = biological target: Fuc(a1-2)[Gal(a1-3)]Gal(b1-4)GlcNAc(b1-2)Man(a1-3)[Fuc(a1-2)[Gal(a1-3)]Gal(b1-4)GlcNAc(b1-2)Man(a1-6)]Man(b1-4)GlcNAc(b1-4)[Fuc(a1-6)]GlcNAc
# How it was run: as §1
# [32] = biological target: Fuc(a1-2)[Gal(a1-3)]Gal(b1-4)GlcNAc(b1-3)GalNAc
# How it was run: as §1
# [33] = biological target: Fuc(a1-2)[Gal(a1-3)]Gal(b1-4)GlcNAc(b1-3)[Fuc(a1-2)[Gal(a1-3)]Gal(b1-4)GlcNAc(b1-6)]GalNAc
# How it was run: as §1
# [34] = biological target: Fuc(a1-2)[Gal(a1-3)]Gal(b1-4)GlcNAc(b1-6)GalNAc
# How it was run: as §1
# [35] = biological target: Fuc(a1-2)[Gal(a1-3)]Gal(b1-4)[Fuc(a1-3)]Glc
# How it was run: as §1
# [36] = biological target: Fuc(a1-2)[Gal(a1-3)]Gal(b1-4)[Fuc(a1-3)]GlcNAc
# How it was run: as §1
# [37] = biological target: Fuc(a1-2)[Gal(a1-3)]Gal(b1-4)[Fuc(a1-3)]GlcNAc(b1-3)GalNAc
# How it was run: as §1
# [38] = biological target: Fuc(a1-2)[Gal(a1-4)]Gal(b1-4)GlcNAc
# How it was run: as §1
# [39] = biological target: Fuc(a1-2)[GalNAc(a1-3)]Gal
# How it was run: as §1
# [40] = biological target: Fuc(a1-2)[GalNAc(a1-3)]Gal(b1-3)GalNAc(a1-3)[Fuc(a1-2)]Gal(b1-4)GlcNAc
# How it was run: as §1
# [41] = biological target: Fuc(a1-2)[GalNAc(a1-3)]Gal(b1-3)GalNAc(b1-3)Gal(a1-4)Gal(b1-4)Glc
# How it was run: as §1
# [42] = biological target: Fuc(a1-2)[GalNAc(a1-3)]Gal(b1-3)GlcNAc
# How it was run: as §1
# [43] = biological target: Fuc(a1-2)[GalNAc(a1-3)]Gal(b1-3)GlcNAc(b1-2)Man(a1-3)[Fuc(a1-2)[GalNAc(a1-3)]Gal(b1-3)GlcNAc(b1-2)Man(a1-6)]Man(b1-4)GlcNAc(b1-4)GlcNAc
# How it was run: as §1
# [44] = biological target: Fuc(a1-2)[GalNAc(a1-3)]Gal(b1-3)GlcNAc(b1-2)Man(a1-3)[Fuc(a1-2)[GalNAc(a1-3)]Gal(b1-3)GlcNAc(b1-2)Man(a1-6)]Man(b1-4)GlcNAc(b1-4)[Fuc(a1-6)]GlcNAc
# How it was run: as §1
# [45] = biological target: Fuc(a1-2)[GalNAc(a1-3)]Gal(b1-3)GlcNAc(b1-3)GalNAc
# How it was run: as §1
binder,measurement,setting,value
B1,glycan array binding signal (z-score),[1],-0.467
same,glycan array binding signal (z-score),[2],-0.305
same,glycan array binding signal (z-score),[3],-0.321
same,glycan array binding signal (z-score),[4],-0.633
same,glycan array binding signal (z-score),[5],0.946
same,glycan array binding signal (z-score),[6],-0.769
same,glycan array binding signal (z-score),[7],-0.803
same,glycan array binding signal (z-score),[8],2.19
same,glycan array binding signal (z-score),[9],1.22
same,glycan array binding signal (z-score),[10],-0.345
same,glycan array binding signal (z-score),[11],-0.318
same,glycan array binding signal (z-score),[12],0.822
same,glycan array binding signal (z-score),[13],-0.54
same,glycan array binding signal (z-score),[14],-0.976
same,glycan array binding signal (z-score),[15],-0.827
same,glycan array binding signal (z-score),[16],-0.208
same,glycan array binding signal (z-score),[17],0.173
same,glycan array binding signal (z-score),[18],-0.237
same,glycan array binding signal (z-score),[19],-0.443
same,glycan array binding signal (z-score),[20],0.376
same,glycan array binding signal (z-score),[21],-1.86
same,glycan array binding signal (z-score),[22],-0.323
same,glycan array binding signal (z-score),[23],0.388
same,glycan array binding signal (z-score),[24],0.006
same,glycan array binding signal (z-score),[25],0.022
same,glycan array binding signal (z-score),[26],-0.263
same,glycan array binding signal (z-score),[27],0.207
same,glycan array binding signal (z-score),[28],0.173
same,glycan array binding signal (z-score),[29],-1.1
same,glycan array binding signal (z-score),[30],0.357
same,glycan array binding signal (z-score),[31],-0.719
same,glycan array binding signal (z-score),[32],-0.788
same,glycan array binding signal (z-score),[33],0.066
same,glycan array binding signal (z-score),[34],-0.234
same,glycan array binding signal (z-score),[35],-0.255
same,glycan array binding signal (z-score),[36],0.237
same,glycan array binding signal (z-score),[37],-0.734
same,glycan array binding signal (z-score),[38],-0.607
same,glycan array binding signal (z-score),[39],0.25
same,glycan array binding signal (z-score),[40],-0.308
same,glycan array binding signal (z-score),[41],0.563
same,glycan array binding signal (z-score),[42],0.471
same,glycan array binding signal (z-score),[43],-0.194
same,glycan array binding signal (z-score),[44],-0.158
same,glycan array binding signal (z-score),[45],-0.825

# 3 neighbouring entries already listed, for reference:
binder,measurement,setting,value
B1,glycan array binding signal (z-score),[2],-0.305
same,glycan array binding signal (z-score),[3],-0.321
same,glycan array binding signal (z-score),[4],-0.633
